{"source": "PubChem BioAssay AID256", "about": "(DTP/NCI, 2004)", "test_system": "CD2F1 mice, L1210 leukemia ip, survival T/C", "test": "NCI In Vivo Anticancer Drug Screen. Data for tumor model L1210 Leukemia (intraperitoneal) in CD2F1 (CDF1) mice", "conditions": "higher T/C = longer survival", "how_it_was_run": "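Ratio T/C, where T is the treated-group value and C the vehicle-dosed control value, from mice implanted with a transplantable tumor.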", "note": "The list shows only some results of the screen, not a fair sample: it gathers tests that were run many times, whatever their T/C, doses with no T/C, and many T/C values between a quarter and a half above the control. Other doses and runs of a compound stand elsewhere. T/C gives the treated animals as a percentage of the vehicle group. Some doses have a count of surviving animals in place of a T/C: the source holds a T/C of zero for them, seemingly a mark for toxic or unscored doses. Some survivor counts are full or nearly so, which does not show that the dose was tolerated: the source hardly ever lists a survival T/C far under the control, and the zero likely stands for such cases as well. Counts of survivors are from the toxicity check (mostly the fifth day) where no day follows; animals may have died later. Schedule codes are those of the source, taken here to give the interval after Q, in days (D) or hours (H), and the number of doses after X. Some doses were run more than once; the results are listed from low to high. For survival time, this PubChem deposit counts one and a half times the control or more as active, and values a quarter to a half above the control carry no call in these data; other NCI protocols may use other cut-offs."}
{"smiles": "Cc1cnc(/C=N\\NC(N)=S)c2cccc(N)c12", "values": [{"measurement": "T/C", "setting": "T/C endpoint: mean survival time, dose: 6.25 mg/kg/injection, schedule: Q01DX009 (ip), vehicle: Klucel (hydroxypropylcellulose) (HPC)", "result": "128 % of control"}, {"measurement": "T/C", "setting": "T/C endpoint: mean survival time, dose: 6.25 mg/kg/injection, schedule: Q01DX009 (ip), vehicle: saline with Tween-80", "result": "137 % of control"}, {"measurement": "T/C", "setting": "T/C endpoint: mean survival time, dose: 12.5 mg/kg/injection, schedule: Q01DX009 (ip), vehicle: Klucel (hydroxypropylcellulose) (HPC)", "result": "144 % of control"}, {"measurement": "T/C", "setting": "T/C endpoint: mean survival time, dose: 12.5 mg/kg/injection, schedule: Q01DX009 (ip), vehicle: saline with Tween-80", "result": "147 % of control"}, {"measurement": "T/C", "setting": "T/C endpoint: mean survival time, dose: 25.0 mg/kg/injection, schedule: Q01DX009 (ip), vehicle: saline with Tween-80", "result": "127 % of control"}, {"measurement": "survivor count", "setting": "T/C endpoint: mean survival time, dose: 50.0 mg/kg/injection, schedule: Q01DX009 (ip), vehicle: saline with Tween-80", "result": "5 of 6"}, {"measurement": "T/C", "setting": "T/C endpoint: median survival time, dose: 10.8 mg/kg/injection, schedule: Q01DX005 (ip), vehicle: other", "result": "134 % of control"}, {"measurement": "T/C", "setting": "T/C endpoint: median survival time, dose: 18.0 mg/kg/injection, schedule: Q01DX005 (ip), vehicle: other", "result": "135 % of control"}, {"measurement": "T/C", "setting": "T/C endpoint: median survival time, dose: 30.0 mg/kg/injection, schedule: Q01DX005 (ip), vehicle: other", "result": "137 % of control"}]}
{"smiles": "CC1(C)C2CCC1(C)C(OCCCN=C(N)CSS(=O)(=O)O)C2", "note": "(configuration not stated)", "values": [{"measurement": "survivor count", "setting": "T/C endpoint: mean survival time, dose: 37.5 mg/kg/injection, schedule: Q04DX002 (ip), vehicle: saline with Tween-80", "result": "0 of 3"}, {"measurement": "survivor count", "setting": "T/C endpoint: mean survival time, dose: 75.0 mg/kg/injection, schedule: Q04DX002 (ip), vehicle: saline with Tween-80", "result": "0 of 3"}, {"measurement": "survivor count", "setting": "T/C endpoint: mean survival time, dose: 150.0 mg/kg/injection, schedule: Q04DX002 (ip), vehicle: saline with Tween-80", "result": "0 of 3"}]}
{"smiles": "CC[NH-].[Cl][Pt+2][Cl].[NH-]C1CC1", "values": [{"measurement": "T/C", "setting": "T/C endpoint: mean survival time, dose: 1.56 mg/kg/injection, schedule: Q04DX003 (ip), vehicle: water", "result": "132 % of control"}, {"measurement": "T/C", "setting": "T/C endpoint: mean survival time, dose: 3.13 mg/kg/injection, schedule: Q04DX003 (ip), vehicle: water", "result": "130 % of control"}, {"measurement": "T/C", "setting": "T/C endpoint: mean survival time, dose: 6.25 mg/kg/injection, schedule: Q04DX003 (ip), vehicle: distilled water + Tween-80", "result": "130 % of control"}, {"measurement": "T/C", "setting": "T/C endpoint: mean survival time, dose: 6.25 mg/kg/injection, schedule: Q04DX003 (ip), vehicle: water", "result": "136 % of control"}, {"measurement": "survivor count", "setting": "T/C endpoint: mean survival time, dose: 12.5 mg/kg/injection, schedule: Q04DX003 (ip), vehicle: distilled water + Tween-80", "result": "6 of 6"}, {"measurement": "survivor count", "setting": "T/C endpoint: mean survival time, dose: 12.5 mg/kg/injection, schedule: Q04DX003 (ip), vehicle: water", "result": "5 of 6"}, {"measurement": "survivor count", "setting": "T/C endpoint: mean survival time, dose: 25.0 mg/kg/injection, schedule: Q04DX003 (ip), vehicle: distilled water + Tween-80", "result": "4 of 6"}, {"measurement": "survivor count", "setting": "T/C endpoint: mean survival time, dose: 50.0 mg/kg/injection, schedule: Q04DX003 (ip), vehicle: distilled water + Tween-80", "result": "0 of 6"}, {"measurement": "survivor count", "setting": "T/C endpoint: mean survival time, dose: 100.0 mg/kg/injection, schedule: Q04DX003 (ip), vehicle: distilled water + Tween-80", "result": "0 of 6"}, {"measurement": "survivor count", "setting": "T/C endpoint: mean survival time, dose: 200.0 mg/kg/injection, schedule: Q04DX003 (ip), vehicle: distilled water + Tween-80", "result": "0 of 6"}]}
{"smiles": "CNC(C1CCCCC1)C(C)OC(=O)c1ccc(N)cc1", "note": "(configuration not stated)", "values": [{"measurement": "survivor count", "setting": "T/C endpoint: mean survival time, dose: 150.0 mg/kg/injection, schedule: Q01DX001 (ip), vehicle: saline", "result": "3 of 6"}, {"measurement": "survivor count", "setting": "T/C endpoint: mean survival time, dose: 300.0 mg/kg/injection, schedule: Q01DX001 (ip), vehicle: saline", "result": "2 of 6"}]}
{"smiles": "O=C(O)/C=C/C(=O)Nc1ccc(Cl)c(Cl)c1", "values": [{"measurement": "T/C", "setting": "T/C endpoint: mean survival time, dose: 25.0 mg/kg/injection, schedule: Q01DX009 (ip), vehicle: Klucel (hydroxypropylcellulose) (HPC)", "result": "125 % of control"}, {"measurement": "survivor count", "setting": "T/C endpoint: mean survival time, dose: 200.0 mg/kg/injection, schedule: Q01DX009 (ip), vehicle: Klucel (hydroxypropylcellulose) (HPC)", "result": "5 of 6 and 6 of 6"}, {"measurement": "survivor count", "setting": "T/C endpoint: mean survival time, dose: 400.0 mg/kg/injection, schedule: Q01DX009 (ip), vehicle: Klucel (hydroxypropylcellulose) (HPC)", "result": "0 of 6"}]}
{"smiles": "CN(C)CC1CCCCCC(CN(C)C)C1=O", "note": "(configuration not stated)", "values": [{"measurement": "survivor count", "setting": "T/C endpoint: mean survival time, dose: 300.0 mg/kg/injection, schedule: Q01DX001 (ip), vehicle: other", "result": "2 of 6"}]}
{"smiles": "C=C1CC2(CCC23COC(=O)C3=C)OC1=O", "note": "(configuration not stated)", "values": [{"measurement": "survivor count", "setting": "T/C endpoint: mean survival time, dose: 25.0 mg/kg/injection, schedule: Q01DX001 (ip), vehicle: other", "result": "0 of 3"}, {"measurement": "survivor count", "setting": "T/C endpoint: mean survival time, dose: 50.0 mg/kg/injection, schedule: Q01DX001 (ip), vehicle: other", "result": "0 of 3"}]}
{"smiles": "COC1CCC(/C=C(\\C#N)C2CCC([N+](=O)[O-])CC2)CC1Br", "note": "(configuration not stated)", "values": [{"measurement": "survivor count", "setting": "T/C endpoint: mean survival time, dose: 100.0 mg/kg/injection, schedule: Q04DX002 (ip), vehicle: saline with Tween-80", "result": "0 of 3"}]}
{"smiles": "Nc1nc(N)c2nc(CNc3ccc(C(=O)NC(CC(=O)O)C(=O)O)cc3)cnc2n1", "note": "(configuration not stated)", "values": [{"measurement": "survivor count", "setting": "T/C endpoint: mean survival time, dose: 400.0 mg/kg/injection, schedule: Q01DX001 (ip), vehicle: saline", "result": "1 of 6"}]}
